No constants are given. Whether binding was seen depends on the method and setting. Binding seen in cells or lysates may run through a third protein. Some binding calls cover weakened binding; strength is not graded here.
Columns and labels:
[1] = target: NMDA receptor subunit NR2B (mouse (endogenous in cultured cortical neurons)) (UniProt Q01097); experiment: co-IP; extracts of cultured mouse cortical neurons (infected with LV-Flag-Homer1a or empty vector, after NMDA injury) precipitated with polyclonal rabbit anti-NR2B and protein G-sepharose, overnight at 4°C; lysis buffer 50 mM Tris-HCl, 150 mM NaCl, 1% NP-40, 2 mM EDTA, pH 7.4; Western blot
[2] = target: neuronal nitric oxide synthase (mouse (endogenous in cultured cortical neurons)) (UniProt Q9Z0J4); experiment: co-IP; reciprocal: extracts of cultured mouse cortical neurons (infected with LV-Flag-Homer1a or empty vector, after NMDA injury) precipitated with rabbit anti-nNOS and protein G-sepharose, overnight at 4°C; lysis buffer 50 mM Tris-HCl, 150 mM NaCl, 1% NP-40, 2 mM EDTA, pH 7.4; Western blot

Protein sequences, listed by entry. Tags and fused reporters are not part of them. Residues count along the entry.
UniProt Q01097, residues 27-1482: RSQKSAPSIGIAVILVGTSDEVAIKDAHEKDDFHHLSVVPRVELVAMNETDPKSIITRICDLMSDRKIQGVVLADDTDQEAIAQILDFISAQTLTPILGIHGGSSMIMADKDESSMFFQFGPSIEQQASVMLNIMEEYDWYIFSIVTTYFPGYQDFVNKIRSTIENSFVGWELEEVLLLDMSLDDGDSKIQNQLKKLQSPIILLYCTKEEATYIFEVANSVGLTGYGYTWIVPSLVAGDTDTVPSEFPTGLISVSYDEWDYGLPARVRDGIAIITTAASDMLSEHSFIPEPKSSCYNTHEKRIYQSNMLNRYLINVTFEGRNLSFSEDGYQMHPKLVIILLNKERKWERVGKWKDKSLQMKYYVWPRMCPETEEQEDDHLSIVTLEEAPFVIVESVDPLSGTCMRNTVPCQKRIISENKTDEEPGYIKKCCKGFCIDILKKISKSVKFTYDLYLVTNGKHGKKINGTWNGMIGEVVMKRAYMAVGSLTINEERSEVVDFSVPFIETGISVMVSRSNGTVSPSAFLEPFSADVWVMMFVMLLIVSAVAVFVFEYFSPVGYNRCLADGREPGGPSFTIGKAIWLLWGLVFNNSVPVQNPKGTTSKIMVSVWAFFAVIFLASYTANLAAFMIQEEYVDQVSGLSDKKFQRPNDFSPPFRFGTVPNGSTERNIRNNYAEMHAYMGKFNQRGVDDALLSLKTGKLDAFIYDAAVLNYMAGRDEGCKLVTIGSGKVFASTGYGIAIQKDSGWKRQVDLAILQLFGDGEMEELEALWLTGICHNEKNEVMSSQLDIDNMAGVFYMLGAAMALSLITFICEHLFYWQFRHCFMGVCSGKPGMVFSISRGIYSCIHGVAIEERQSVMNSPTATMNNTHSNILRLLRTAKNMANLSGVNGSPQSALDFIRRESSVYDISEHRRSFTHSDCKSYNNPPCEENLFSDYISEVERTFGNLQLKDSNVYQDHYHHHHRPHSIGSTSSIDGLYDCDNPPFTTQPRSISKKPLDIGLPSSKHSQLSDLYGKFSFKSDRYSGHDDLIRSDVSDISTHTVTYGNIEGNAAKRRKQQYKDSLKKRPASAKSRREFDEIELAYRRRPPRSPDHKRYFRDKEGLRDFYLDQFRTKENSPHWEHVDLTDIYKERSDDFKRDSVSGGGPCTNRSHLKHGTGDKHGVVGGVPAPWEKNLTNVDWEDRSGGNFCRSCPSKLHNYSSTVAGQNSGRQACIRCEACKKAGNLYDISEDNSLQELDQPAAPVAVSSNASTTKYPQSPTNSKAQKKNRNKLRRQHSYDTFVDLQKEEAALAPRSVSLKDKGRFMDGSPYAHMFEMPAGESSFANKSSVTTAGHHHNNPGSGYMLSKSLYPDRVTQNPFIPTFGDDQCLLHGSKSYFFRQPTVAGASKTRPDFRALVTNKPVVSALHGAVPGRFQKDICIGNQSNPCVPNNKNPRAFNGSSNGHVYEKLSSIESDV
UniProt Q9Z0J4: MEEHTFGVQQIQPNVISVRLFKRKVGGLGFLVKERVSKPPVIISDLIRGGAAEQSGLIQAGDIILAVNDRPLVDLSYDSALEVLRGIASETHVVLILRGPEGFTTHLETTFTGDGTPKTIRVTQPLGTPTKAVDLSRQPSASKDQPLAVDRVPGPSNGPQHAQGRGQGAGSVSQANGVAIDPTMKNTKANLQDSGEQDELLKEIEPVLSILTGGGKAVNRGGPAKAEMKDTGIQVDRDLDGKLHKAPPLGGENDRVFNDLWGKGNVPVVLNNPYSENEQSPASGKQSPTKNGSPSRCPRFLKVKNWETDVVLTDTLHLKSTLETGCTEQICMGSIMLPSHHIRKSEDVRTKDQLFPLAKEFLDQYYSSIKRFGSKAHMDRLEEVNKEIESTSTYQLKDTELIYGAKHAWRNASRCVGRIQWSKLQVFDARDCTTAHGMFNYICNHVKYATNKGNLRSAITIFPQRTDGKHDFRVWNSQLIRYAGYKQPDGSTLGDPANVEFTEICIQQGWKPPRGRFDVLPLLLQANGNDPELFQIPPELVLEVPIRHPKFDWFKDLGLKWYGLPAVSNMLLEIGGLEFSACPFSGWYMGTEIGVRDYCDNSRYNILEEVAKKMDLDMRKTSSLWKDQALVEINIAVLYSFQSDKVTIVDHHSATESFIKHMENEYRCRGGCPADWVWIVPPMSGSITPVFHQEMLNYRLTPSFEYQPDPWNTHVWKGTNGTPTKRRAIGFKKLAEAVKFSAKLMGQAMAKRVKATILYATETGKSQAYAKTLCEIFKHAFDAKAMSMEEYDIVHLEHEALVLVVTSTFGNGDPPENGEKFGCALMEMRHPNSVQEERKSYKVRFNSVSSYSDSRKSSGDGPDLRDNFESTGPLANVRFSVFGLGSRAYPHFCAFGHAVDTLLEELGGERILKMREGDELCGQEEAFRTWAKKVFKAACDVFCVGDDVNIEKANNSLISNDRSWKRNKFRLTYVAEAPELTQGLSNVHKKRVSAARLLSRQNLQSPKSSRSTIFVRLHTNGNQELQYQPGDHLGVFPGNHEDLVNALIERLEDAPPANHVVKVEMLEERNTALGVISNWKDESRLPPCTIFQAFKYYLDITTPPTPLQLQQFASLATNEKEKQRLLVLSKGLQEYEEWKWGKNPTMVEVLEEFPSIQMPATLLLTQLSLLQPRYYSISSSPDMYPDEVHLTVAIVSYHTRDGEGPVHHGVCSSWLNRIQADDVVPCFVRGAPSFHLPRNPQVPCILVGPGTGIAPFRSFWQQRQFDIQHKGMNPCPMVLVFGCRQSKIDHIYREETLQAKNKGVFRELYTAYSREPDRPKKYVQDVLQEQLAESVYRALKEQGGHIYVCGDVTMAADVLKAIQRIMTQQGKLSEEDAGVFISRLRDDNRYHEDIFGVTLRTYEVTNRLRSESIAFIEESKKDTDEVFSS

Substance | binding [1] | binding [2]
neuronal nitric oxide synthase (from UniProt Q9Z0J4 1-1429) (enzyme) | binds | –
NMDA receptor subunit NR2B (from UniProt Q01097 27-1482) | – | binds

Reference: publication PMC4558508
